Taken from: PubChem BioAssay AID1224828 (NIAID, 2016)

Screen: 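Regulators linking TLR4 signalling to p65 nuclear translocation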 (primary screen)
Cell system: mouse RAW264.7 G9 macrophage reporter cells (GFP-p65, Tnf promoter-mCherry)
Reagent: siRNA pool against mouse genes, 100 nM
Duration: 2 days siRNA transfection, then 40 min LPS before fixation
Conditions: LPS (Salmonella minnesota R595) at 10 ng/ml
Measurement: 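Microscopy ratio of nuclear to perinuclear-ring GFP-p65 signal, scaled to the plate median; gene score is the average of two replicate robust z-scores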
Direction: p65 translocation robust z-score: higher = more nuclear NF-kappaB p65 after LPS than the plate median; nuclear/cytoplasmic p65 ratio: higher = more nuclear NF-kappaB p65
Active means: 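Active if robust z is above 3.3 (negative regulators) or below -1.56, the Tlr4 control median (positive regulators); activity score 50 or more; control wells not called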
Meaning of the calls: active = hit (p65 shift raised or lowered); inactive = no clear change
The deposit covers about 17,000 reagents; this is a random part of them. 762 of all reagents (4.5%) count as active. 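Active calls include both raised and lowered p65 entry, mostly lowered; wells with fewer than 50 cells lack a z-score.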 Raw values vary from plate to plate and are shown uncorrected. Entries without a mark were called inactive. No sequences are given here.

gene | PubChem SID | p65 translocation robust z-score | nuclear/cytoplasmic p65 ratio, rep 1 | nuclear/cytoplasmic p65 ratio, rep 2 | low cell count flag
Wdr7 (WD repeat domain 7) | SID315476412 | -0.2 | 1.62 | 1.45 | enough cells to score
Ap5z1 (adaptor-related protein complex 5, zeta 1 subunit) | SID315478936 | – | 1.06 | 1.43 | fewer than 50 cells per well; well left out of scoring
Mamdc2 (MAM domain containing 2) | SID315474301 | 0.43 | 1.8 | 1.59 | enough cells to score
Mgat4c (MGAT4 family, member C) | SID315473102 | -0.22 | 1.4 | 1.51 | enough cells to score
Fam76b (family with sequence similarity 76, member B) | SID315474633 | 1.84 | 1.51 | 1.27 | enough cells to score
Nle1 (notchless homolog 1) | SID315478064 | -2.19 (active) | 1.23 | 1.23 | enough cells to score
Smchd1 (SMC hinge domain containing 1) | SID315474949 | – | 1.25 | 1.46 | fewer than 50 cells per well; well left out of scoring
Or6c66 (olfactory receptor family 6 subfamily C member 66) | SID315480220 | – | 1.4 | 1.06 | fewer than 50 cells per well; well left out of scoring
Catsper3 (cation channel, sperm associated 3) | SID315475394 | 1.36 | 1.82 | 1.98 | enough cells to score
Naxe (NAD(P)HX epimerase) | SID315479883 | 0.49 | 1.63 | 1.62 | enough cells to score
Psmb6 (proteasome (prosome, macropain) subunit, beta type 6) | SID315468742 | -1.37 | 1.3 | 1.24 | enough cells to score
Pex3 (peroxisomal biogenesis factor 3) | SID315471601 | 0.59 | 1.55 | 1.46 | enough cells to score
Wnt5a (WNT family member 5A) | SID315470046 | 0.39 | 1.58 | 1.55 | enough cells to score
Popdc2 (popeye domain containing 2) | SID315472062 | -0.26 | 1.31 | 1.22 | enough cells to score
Slc25a32 | SID315473931 | 0.88 | 1.78 | 1.74 | enough cells to score
Phxr1 (per-hexamer repeat gene 1) | SID315468499 | – | 1.39 | 1.23 | fewer than 50 cells per well; well left out of scoring
Ccdc7b (coiled-coil domain containing 7B) | SID315475125 | 0.88 | 1.45 | 1.53 | enough cells to score
Tmem86a (transmembrane protein 86A) | SID315473294 | 0.75 | 1.46 | 1.55 | enough cells to score
Psap (prosaposin) | SID315468730 | 1.15 | 1.61 | 1.6 | enough cells to score
Abca6 (ATP-binding cassette, sub-family A member 6) | SID315475259 | 0.18 | 1.6 | 1.75 | enough cells to score
Foxh1 (forkhead box H1) | SID315466628 | -0.41 | 1.31 | 1.39 | enough cells to score
Akap3 (A kinase anchor protein 3) | SID315465371 | -1.74 (active) | 1.34 | 1.16 | enough cells to score
Fkbp1b (FK506 binding protein 1b) | SID315466698 | -1.33 | 1.43 | 1.25 | enough cells to score
Airim (AFG2 interacting ribosome maturation factor) | SID315477449 | 0.32 | 1.41 | 1.59 | enough cells to score
Pcbp4 (poly(rC) binding protein 4) | SID315471992 | -0.14 | 1.5 | 1.33 | enough cells to score
Cox6a1 (cytochrome c oxidase subunit 6A1) | SID315466081 | 0.19 | 1.55 | 1.87 | enough cells to score
Nemf (nuclear export mediator factor) | SID315472313 | 1.32 | 1.61 | 1.35 | enough cells to score
Timm8a1 (translocase of inner mitochondrial membrane 8A1) | SID315470744 | 1.06 | 1.64 | 1.69 | enough cells to score
Hapln2 (hyaluronan and proteoglycan link protein 2) | SID315474805 | 0.41 | 1.76 | 1.55 | enough cells to score
Hsdl2 (hydroxysteroid dehydrogenase like 2) | SID315474559 | – | 1.46 | 1.43 | fewer than 50 cells per well; well left out of scoring
Cd86 (CD86 antigen) | SID315465880 | -1.55 | 1.47 | 1.18 | enough cells to score
Pgf (placental growth factor) | SID315468485 | 2.42 | 1.91 | 1.65 | enough cells to score
Htr2a (5-hydroxytryptamine (serotonin) receptor 2A) | SID315467340 | – | 1.3 | 1.44 | fewer than 50 cells per well; well left out of scoring
6430548M08Rik (RIKEN cDNA 6430548M08 gene) | SID315479200 | 0 | 1.32 | 1.51 | enough cells to score
Dlg5 (discs large MAGUK scaffold protein 5) | SID315474206 | -0.22 | 1.47 | 1.37 | enough cells to score
Lncpint (long non-protein coding RNA, Trp53 induced transcript) | SID315479002 | – | 0.951 | 1.16 | fewer than 50 cells per well; well left out of scoring
Chrnb4 (cholinergic receptor, nicotinic, beta polypeptide 4) | SID315476669 | -1.54 | 1.26 | 1.18 | enough cells to score
Atg101 (autophagy related 101) | SID315473418 | – | 1.25 | 1.49 | fewer than 50 cells per well; well left out of scoring
Gns (glucosamine (N-acetyl)-6-sulfatase) | SID315475161 | 1.92 | 1.67 | 1.64 | enough cells to score
Htr1a (5-hydroxytryptamine (serotonin) receptor 1A) | SID315467336 | -1.14 | 1.39 | 1.37 | enough cells to score
